Paper PMC7819943, “Rice protein-binding microarrays: a tool to detect cis-acting elements near promoter regions in rice”
Some of the results follow.

By UniProt entry, the sequences of proteins in these tests, tags left out.
UniProt Q0JBA9, entry or part of it: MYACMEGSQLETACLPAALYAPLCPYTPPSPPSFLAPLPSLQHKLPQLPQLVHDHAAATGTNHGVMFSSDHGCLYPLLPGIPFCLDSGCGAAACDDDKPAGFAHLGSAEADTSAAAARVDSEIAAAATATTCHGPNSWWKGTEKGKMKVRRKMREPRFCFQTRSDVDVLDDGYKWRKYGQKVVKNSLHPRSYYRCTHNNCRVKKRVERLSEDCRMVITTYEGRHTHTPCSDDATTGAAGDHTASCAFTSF

target: OsWRKY34 (Oryza sativa, UniProt Q0JBA9 1-250); assay: protein-binding microarray (RPBM); PBS, 2% BSA, 51.3 ng/ul salmon testes DNA, 50 uM zinc acetate, 200 nM TF, 25 C, 1 h; high values mean tight binding; conditions: protein: recombinant; tags: N-terminal polyhistidine and DsRed monomer fusion (pET32a); label: CyDye5-dUTP incorporated in the synthesized complementary strand; 3' TTTTT single-stranded linker to array surface; dsDNA, one strand shown
Summary of the method: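 The binding signal is fluorescence intensity per array feature (arbitrary units). Readings came from an Axon 4000B scanner after a washed, 2% BSA-blocked, double-stranded custom Agilent array had been incubated for 1 h at 25 °C with 200 nM protein and 50 µM zinc acetate. The protein was a Ni–NTA-purified transcription factor fused N-terminally to polyhistidine and DsRed, expressed in E. coli BL21-CodonPlus.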

Row | Sequence | binding signal
1 | TTTTTTTGCTTTTTCACTATTTTTTTATTTTGACGGACGACGGAGTCACCTAGTGCAG | 9300 fluorescence intensity (a.u.)
2 | GCCTCCTCCATCCATGTCGGCGCCGCGGCTCTTCCCAACACGGAGTCACCTAGTGCAG | 8250 fluorescence intensity (a.u.)
3 | CTGATCCGGGCTTTTGGTTCTCTGCCGTGCTGGGGTCTCTCGGAGTCACCTAGTGCAG | 8720 fluorescence intensity (a.u.)
4 | ACCACATCCATCTTAACTATGTTTTTTCTTGCCAAGTATGCGGAGTCACCTAGTGCAG | 8340 fluorescence intensity (a.u.)
5 | CCTAATTTGCGTGATTGGATTGGTTGGTTGTGTTGTAATGCGGAGTCACCTAGTGCAG | 8730 fluorescence intensity (a.u.)
6 | GCCAGTGGAGTTTCCTTTTTGTGCTCCTCGTGTTTGTTCTCGGAGTCACCTAGTGCAG | 9140 fluorescence intensity (a.u.)
7 | TACTTCATTTGTTTAATTATTTCATGCACTACGGTTTTCTCGGAGTCACCTAGTGCAG | 9530 fluorescence intensity (a.u.)
8 | CTATTTGTCTCTTTGGCCTATTTTTAGAGCGCTCATGTCTCGGAGTCACCTAGTGCAG | 8660 fluorescence intensity (a.u.)
9 | TCTATTTCCGCTAAAAGTTTTCGGTTTTTGGGTATATCAACGGAGTCACCTAGTGCAG | 8610 fluorescence intensity (a.u.)
10 | TCCACTTGCATCTCTCTCTCTCTCTCTCCCAATTATATTTCGGAGTCACCTAGTGCAG | 11300 fluorescence intensity (a.u.)
11 | TGTCGCCATTGATGCCGATCTCGGGCCATTCCTCTGTCGACGGAGTCACCTAGTGCAG | 9710 fluorescence intensity (a.u.)
12 | TTCCGGCCCGCGTTCTTTTTGAAGTCCAGTTTACGTCCTTCGGAGTCACCTAGTGCAG | 10800 fluorescence intensity (a.u.)
13 | CTTTTACGTCCGTTTTTTTCTTCCCTTCTCGTCAGACAAACGGAGTCACCTAGTGCAG | 9270 fluorescence intensity (a.u.)
14 | CGGTCTTGTTGCAGACACGTCCTTCCTATTTGTTTCCAAACGGAGTCACCTAGTGCAG | 10400 fluorescence intensity (a.u.)
15 | AATGTTCGTGAAAGTGCAAATGTGGTGTTGCATGTGTAGTCGGAGTCACCTAGTGCAG | 8110 fluorescence intensity (a.u.)
16 | ATCACCCTGCTCCTGTCCTGGAAGATCTCAGGGTTGCCACCGGAGTCACCTAGTGCAG | 8080 fluorescence intensity (a.u.)
17 | ACCCATCATCACCTTCAACCTAACGATCGACCTGTACGTACGGAGTCACCTAGTGCAG | 8090 fluorescence intensity (a.u.)
18 | AATTAATACATGGTCCACTTATCTTTCTCACAAAGTTTCTCGGAGTCACCTAGTGCAG | 9070 fluorescence intensity (a.u.)
19 | GCTGGGCACTTACTGCATCGATCGATCTCCTCTTCAGAACCGGAGTCACCTAGTGCAG | 10500 fluorescence intensity (a.u.)
20 | AATCCAACGTGGTTGTTGCCTCTGTACTGTACTGTACTCCCGGAGTCACCTAGTGCAG | 8180 fluorescence intensity (a.u.)
21 | GCCGACTCATGCTCTCTCTCCTATTTAGCTCATTGACAAACGGAGTCACCTAGTGCAG | 10200 fluorescence intensity (a.u.)

Row | Sequence | binding signal
22 | GGATGTTTAGTCTTTTACATATCTGTTTTTTTTTTCTGAACGGAGTCACCTAGTGCAG | 10100 fluorescence intensity (a.u.)
23 | GAATGATGACTGGACTGCCACACGTACACCACGTAGACCACGGAGTCACCTAGTGCAG | 9800 fluorescence intensity (a.u.)
24 | TGCCAAATCGTGGGCCCCACGCTTTTTTCCCCATCTCCTCCGGAGTCACCTAGTGCAG | 10200 fluorescence intensity (a.u.)
25 | ACACACAAGCACAATGAGAGACGCTTGGTGGGGTGGGGTGCGGAGTCACCTAGTGCAG | 9870 fluorescence intensity (a.u.)
26 | GCCACACCAGCCACACCACGCTCGCACGCCGCCTCCGCCGCGGAGTCACCTAGTGCAG | 14200 fluorescence intensity (a.u.)
27 | CATTTCTTGCATCTCCAATTATACTCTTGCTTCCAATTTCCGGAGTCACCTAGTGCAG | 11600 fluorescence intensity (a.u.)
28 | GCTTCCTCGGCCTCGGGCCGCGTCTCCATGGTCGACTTGACGGAGTCACCTAGTGCAG | 11200 fluorescence intensity (a.u.)
29 | CTGTATCCATCCCTAAATATTTGACGCCGTTGACTTTTCTCGGAGTCACCTAGTGCAG | 25600 fluorescence intensity (a.u.)
30 | TCCTCTGCCTCCACCGCCGTCTGCGCCGATCCCCATCCATCGGAGTCACCTAGTGCAG | 9980 fluorescence intensity (a.u.)
31 | ATCCCATTGGCAAATGATGCCTATAGCTGTGACTTATGAACGGAGTCACCTAGTGCAG | 8880 fluorescence intensity (a.u.)
32 | AAGACTTTTGCTGCATTCTGTTTTTGTCCATGAACCATATCGGAGTCACCTAGTGCAG | 9400 fluorescence intensity (a.u.)
33 | GTTGGGTTATTTCGGAAGGGAGGGAGTACTTGTCATCCCGCGGAGTCACCTAGTGCAG | 9100 fluorescence intensity (a.u.)
34 | GGTTCTCATGGTGTGATCTCAGTAGTTTCTTGGTCTTATTCGGAGTCACCTAGTGCAG | 8160 fluorescence intensity (a.u.)
35 | AGCCGACGCATCATCTACTCATCACACATTTAATTTTTCCCGGAGTCACCTAGTGCAG | 14100 fluorescence intensity (a.u.)
36 | ACATTTCCTACACTTCCGGTACTTGTCAATTTCCCATCACCGGAGTCACCTAGTGCAG | 10000 fluorescence intensity (a.u.)
37 | TAAATTTATCTTGGATCGCAAATATTACTATTTTTTTATACGGAGTCACCTAGTGCAG | 8400 fluorescence intensity (a.u.)
38 | GTAAAGTTGGCCATCTCTCGCCCACCGCTTCACCTTCACTCGGAGTCACCTAGTGCAG | 10400 fluorescence intensity (a.u.)
39 | CCGCTTTTCTTCCAGTCTTTCTCCTCCGTCTCTCATCCTCCGGAGTCACCTAGTGCAG | 11000 fluorescence intensity (a.u.)
40 | TGATTTAGTTTGTGTTCTGTCATGTATAACCCTTGTTTCTCGGAGTCACCTAGTGCAG | 8920 fluorescence intensity (a.u.)
41 | AAAACCGGAACTCTCACCCTCAACCATCTCACTGTTGACACGGAGTCACCTAGTGCAG | 9100 fluorescence intensity (a.u.)
42 | GTTTTCTCGCTTTTTTTTCCTTTCCTACGGACGACGGAAACGGAGTCACCTAGTGCAG | 12900 fluorescence intensity (a.u.)

A second format for some results above.
Row,Sequence,binding signal
20,AATCCAACGTGGTTGTTGCCTCTGTACTGTACTGTACTCCCGGAGTCACCTAGTGCAG,8180 fluorescence intensity (a.u.)
21,GCCGACTCATGCTCTCTCTCCTATTTAGCTCATTGACAAACGGAGTCACCTAGTGCAG,10200 fluorescence intensity (a.u.)
